Laboratory results reported in US7941211B2, “Preloading with macular pigment to improve photodynamic treatment of retinal vascular disorders” (ZeaVision, LLC., priority 2003, dated 2011).
For at least one compound, name, drawing or mass did not settle the structure.

What was measured:
[1] = system: wet macular degeneration (subfoveal CNV); test: Case report: zeaxanthin pre-loading before verteporfin-laser PDT (Example 1); format: in vivo, human; conditions: person; zeaxanthin 20 mg/day oral before and after PDT of right eye (July 2003); assessed three months later; originally forecast 5 or 6 over 2 years
Excerpt: Such a candidate became known to the Applicant, in mid to late 2003. Because of certain personal and business connections, they were contacted by a person, who had been told that (i) […] eyesight was deteriorating rapidly, due to macular degeneration, and (ii) they should take care of any business, financial, legal, and other matters as soon as possible, before […] eyesight became even worse. This person made their plight (and their severe depression, due to the very negative prognosis they had received from an expert) known to the Applicant. In response, the Applicant informed the patient that they (the Applicant) had made a number of charitable donations to support research at the Johns Hopkins School of Medicine, where some of the world's foremost experts in macular degeneration work. […] (the Applicant) offered to see whether they could obtain expedited treatment for the patient, by making some phone calls to people they knew who worked there. The patient accepted that offer, and was seen and treated not long thereafter, by a top expert at the Wilmer Eye Institute, a highly respected eye care and research institute affiliated with Johns Hopkins.
This patient had been taking zeaxanthin for a number of weeks, prior to being examined and treated at the Wilmer Eye Institute. […]

[2] = system: choroidal neovascularization; conditions: injection into the vitreous humour immediately after PDT; over the following months; cited from earlier work

Row | SMILES | number of verteporfin-laser treatments the patient likely would need [1] | results of PDT treatments (visual acuity or retinal condition) [2]
1 | CC1=C(/C=C/C(C)=C/C=C/C(C)=C/C=C/C=C(C)/C=C/C=C(C)/C=C/C2=C(C)C[C@@H](O)CC2(C)C)C(C)(C)C[C@H](O)C1 [zeaxanthin] | 1 or 2 | 
2 | CC1(C)O[C@@H]2C[C@H]3[C@@H]4CCC5=CC(=O)C=C[C@]5(C)[C@@]4(F)[C@@H](O)C[C@]3(C)[C@]2(C(=O)CO)O1 [triamcinolone acetonide] |  | appeared to be improved
